Consider two molecules from patent US20230080224A1 (AGENCY FOR SCIENCE TECHNOLOGY AND RESEARCH, published 2023).

Chains of the proteins cited; added tags and fusions are not shown. Residues count along the entry.
UniProt P10696, residues 20-503: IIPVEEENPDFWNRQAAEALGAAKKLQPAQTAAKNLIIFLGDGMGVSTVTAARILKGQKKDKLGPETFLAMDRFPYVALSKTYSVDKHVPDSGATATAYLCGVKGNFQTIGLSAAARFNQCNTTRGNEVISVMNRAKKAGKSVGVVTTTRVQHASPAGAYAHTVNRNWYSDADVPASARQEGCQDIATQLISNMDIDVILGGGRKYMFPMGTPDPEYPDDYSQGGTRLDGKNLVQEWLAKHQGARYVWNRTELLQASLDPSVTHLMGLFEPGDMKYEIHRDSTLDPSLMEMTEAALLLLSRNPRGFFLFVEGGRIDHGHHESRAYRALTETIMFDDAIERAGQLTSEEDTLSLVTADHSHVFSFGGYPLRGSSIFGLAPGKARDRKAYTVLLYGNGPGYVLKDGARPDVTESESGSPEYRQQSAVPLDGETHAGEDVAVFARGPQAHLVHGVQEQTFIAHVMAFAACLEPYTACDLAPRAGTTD
UniProt P05187, residues 23-506: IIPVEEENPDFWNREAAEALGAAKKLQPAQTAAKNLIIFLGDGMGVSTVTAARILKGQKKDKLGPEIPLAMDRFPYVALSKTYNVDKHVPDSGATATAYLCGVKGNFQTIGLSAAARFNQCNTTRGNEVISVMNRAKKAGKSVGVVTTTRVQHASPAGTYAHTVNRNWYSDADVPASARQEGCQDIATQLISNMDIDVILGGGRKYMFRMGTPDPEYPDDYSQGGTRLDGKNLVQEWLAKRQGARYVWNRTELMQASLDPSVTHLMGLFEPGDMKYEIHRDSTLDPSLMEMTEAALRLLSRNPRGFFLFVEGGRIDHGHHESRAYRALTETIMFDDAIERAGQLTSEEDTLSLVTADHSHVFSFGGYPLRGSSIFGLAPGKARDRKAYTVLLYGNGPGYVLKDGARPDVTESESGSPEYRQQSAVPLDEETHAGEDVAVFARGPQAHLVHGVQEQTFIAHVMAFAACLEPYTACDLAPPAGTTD

Assay [1] addresses human ALPPL2 (recombinant protein) (human) (UniProt P10696). The assay can be described thus: SPR, Biacore T200, ligand captured by streptavidin on CM5 chip, antibody as analyte. On the technique in general: Surface plasmon resonance follows binding to a sensor surface in real time, without labels.
Assay [2] has as its target human ALPP (recombinant protein) (human) (UniProt P05187). The description is as above.
Assay [3] addresses human ALPPL2 (recombinant protein) (human) (UniProt P10696). The assay can be described thus: screen of rabbit B-cell clones by ELISA and FACS. On the technique in general: ELISA stands for enzyme-linked immunosorbent assay.

Results are given in words; binding and its absence hold for the method and conditions named. Some binding calls cover weakened binding; strength is not graded here.

B1: humanized C131 (antibody, human IgG1, V domains shown)
VH: EVQLVESGGGLVQPGGSLRLSCAASGFSFSSSYYMCWVRQAPGKGLEWIACIYAGSTFSTYYASWAKGRFTISRDNSKNTLYLQMNSLRAEDTAVYYCARSDSYYTYGYAGYAYAIFNLWGQGTLVTVSS
VL: DIQMTQSPSSLSASVGDRVTITCQASESIYSNLAWYQQKPGKVPKLLIYLASTLASGVPSRFSGSGSGTDFTLTISSLQPEDVATYYCQSAYYSSSADIAFGQGTKVEIK
Turning to B1, the binding result in assay [1] and in assay [2] was “binds” throughout.

B2: AB1C13 (antibody, V domains shown)
VH: QEQLEESGGDLVKPEGSLTLTCTASGFSFSWICWVRQAPGKGLEWIACIYAGSSAKTYYASWAKGRFTISKASSTTVTLQMTSLTAADTATYFCARASNYYRYGVAGYADYTGYFNLWGPGTLVTVSS
VL: FELTQTPASVEAAVGGTVTIKCQASQSISSWLAWYHQKPGQRPKLLIYGTSTLASGVPSRFKGSGSGTEFTLTISDLECADAATYYCQNYGGSSSGDAFGGGTEVVVK
notes: Rabbit antibody cloned from a single B cell
As to B2, in assay [3], the binding result was “binds”.
